A short description of the series: general procedure: solution-phase peptide synthesis; EDC hydrochloride / HOBt monohydrate.

Square brackets hold non-standard residues; d marks the D form. * marks the point of attachment. Tos = Cc1ccc(S(=O)(=O)*)cc1; Boc = CC(C)(C)OC(=O)*; OBn = c1ccc(CO*)cc1; Bn = c1ccc(C*)cc1

Boc-D-Leu-Leu-Arg(Ts)-Pro-NEtBn displayed a step yield (coupling step) of 99%. Moreover, the “crude purity (method not given)” value (coupling step, HPLC) is 93%.
With Boc-GGFL-OBn, the step yield reads like this: (coupling step) 73%; (purification step, crystallization yield) 71%. The “crude purity (method not given)” value stood at 92% (coupling step, HPLC) and 87% (whole synthesis, HPLC). The “final purity (method not given)” value (purification step, HPLC) amounted to 95%. For the setting “whole synthesis, relative to Leu-OBn•TsOH salt”, the crude yield is on record as 82%.
With Boc-S(Bn)Y(Bn)[dL]LR(Tos)P-NHEt, under “coupling step”, the step yield amounted to 84%. Further, for the setting “coupling step, HPLC”, the “crude purity (method not given)” value is 83%.
Regarding Boc-Tyr(Bn)-D-Leu-Leu-Arg(Ts)-Pro-NEtBn, under “coupling step”, the step yield is given as 97%. The “crude purity (method not given)” value (coupling step, HPLC) was 66%.
The like results for Boc-[dL]LR(Tos)P-NHEt were, in that order, 85% and 95%.

These data come from patent US8716439 (dated 2014).
